Experimental data as given in PMC4041461.
For some of these results: The comparison behind a weaker result is the experiment's own reference, which may not be listed here. For some of these results: Construct, isoform or probe ends are uncertain for at least one entry. For some of these results: At least one result comes from cells or an extract, where the contact may be indirect. For some of these results: Negatives hold for the conditions tested. For some of these results: Where a protein sequence is shown, tags need not be part of it.

Columns and labels:
[1] = target: RPL27a (Homo sapiens) (UniProt P46776); assay: pull-down; conditions: 3' biotin; pull-down: RNA on streptavidin beads blocked in 10 mM Tris-HCl pH 7.5, 100 mM KCl, 0.1 mM EDTA, 1 mM DTT, 0.01% Triton X-100, BSA, tRNA; extract 1 h at 30 °C; protein in an extract; label: biotin
[2] = target: Y-box-binding protein 3 (Homo sapiens) (UniProt P16989); assay: pull-down; conditions: 3' biotin; pull-down: RNA on streptavidin beads blocked in 10 mM Tris-HCl pH 7.5, 100 mM KCl, 0.1 mM EDTA, 1 mM DTT, 0.01% Triton X-100, BSA, tRNA; extract 1 h at 30 °C; protein in an extract; label: biotin
[3] = target: RPL12 (Homo sapiens) (UniProt P30050); assay: pull-down; conditions: 3' biotin; pull-down: RNA on streptavidin beads blocked in 10 mM Tris-HCl pH 7.5, 100 mM KCl, 0.1 mM EDTA, 1 mM DTT, 0.01% Triton X-100, BSA, tRNA; extract 1 h at 30 °C; protein in an extract; label: biotin
[4] = target: EFHD2 (native) (Homo sapiens) (UniProt Q96C19); assay: pull-down; conditions: 3' biotin; pull-down: RNA on streptavidin beads blocked in 10 mM Tris-HCl pH 7.5, 100 mM KCl, 0.1 mM EDTA, 1 mM DTT, 0.01% Triton X-100, BSA, tRNA; extract 1 h at 30 °C; protein in an extract; label: biotin
[5] = target: U2AF65 (native) (Homo sapiens) (UniProt P26368); assay: pull-down; conditions: 3' biotin; pull-down: RNA on streptavidin beads blocked in 10 mM Tris-HCl pH 7.5, 100 mM KCl, 0.1 mM EDTA, 1 mM DTT, 0.01% Triton X-100, BSA, tRNA; extract 1 h at 30 °C; protein in an extract; label: biotin
[6] = target: T1, hnRNPF (Homo sapiens) (UniProt P52597); assay: pull-down; conditions: 3' biotin; pull-down: RNA on streptavidin beads blocked in 10 mM Tris-HCl pH 7.5, 100 mM KCl, 0.1 mM EDTA, 1 mM DTT, 0.01% Triton X-100, BSA, tRNA; extract 1 h at 30 °C; protein in an extract; label: biotin
T1 sequence (looked up, limits assumed): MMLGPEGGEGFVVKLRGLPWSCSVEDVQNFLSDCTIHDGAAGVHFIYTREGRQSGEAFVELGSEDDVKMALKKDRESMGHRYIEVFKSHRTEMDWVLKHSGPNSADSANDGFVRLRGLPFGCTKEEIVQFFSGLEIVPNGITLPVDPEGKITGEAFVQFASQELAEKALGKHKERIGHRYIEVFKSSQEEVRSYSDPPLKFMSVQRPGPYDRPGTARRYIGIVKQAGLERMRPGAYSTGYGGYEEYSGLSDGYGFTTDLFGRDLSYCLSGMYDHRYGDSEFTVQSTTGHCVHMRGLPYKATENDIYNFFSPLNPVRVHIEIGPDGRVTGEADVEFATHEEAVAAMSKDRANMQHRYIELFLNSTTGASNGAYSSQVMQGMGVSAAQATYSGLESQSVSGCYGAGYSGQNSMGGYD

[7] = target: RPL19 (Homo sapiens) (UniProt P84098); assay: pull-down; conditions: 3' biotin; pull-down: RNA on streptavidin beads blocked in 10 mM Tris-HCl pH 7.5, 100 mM KCl, 0.1 mM EDTA, 1 mM DTT, 0.01% Triton X-100, BSA, tRNA; extract 1 h at 30 °C; protein in an extract; label: biotin
[8] = target: RPL6 (Homo sapiens) (UniProt Q02878); assay: pull-down; conditions: 3' biotin; pull-down: RNA on streptavidin beads blocked in 10 mM Tris-HCl pH 7.5, 100 mM KCl, 0.1 mM EDTA, 1 mM DTT, 0.01% Triton X-100, BSA, tRNA; extract 1 h at 30 °C; protein in an extract; label: biotin
[9] = target: T2, RBM14 (Homo sapiens) (UniProt Q96PK6); assay: pull-down; conditions: 3' biotin; pull-down: RNA on streptavidin beads blocked in 10 mM Tris-HCl pH 7.5, 100 mM KCl, 0.1 mM EDTA, 1 mM DTT, 0.01% Triton X-100, BSA, tRNA; extract 1 h at 30 °C; protein in an extract; label: biotin
T2 sequence (looked up, limits assumed): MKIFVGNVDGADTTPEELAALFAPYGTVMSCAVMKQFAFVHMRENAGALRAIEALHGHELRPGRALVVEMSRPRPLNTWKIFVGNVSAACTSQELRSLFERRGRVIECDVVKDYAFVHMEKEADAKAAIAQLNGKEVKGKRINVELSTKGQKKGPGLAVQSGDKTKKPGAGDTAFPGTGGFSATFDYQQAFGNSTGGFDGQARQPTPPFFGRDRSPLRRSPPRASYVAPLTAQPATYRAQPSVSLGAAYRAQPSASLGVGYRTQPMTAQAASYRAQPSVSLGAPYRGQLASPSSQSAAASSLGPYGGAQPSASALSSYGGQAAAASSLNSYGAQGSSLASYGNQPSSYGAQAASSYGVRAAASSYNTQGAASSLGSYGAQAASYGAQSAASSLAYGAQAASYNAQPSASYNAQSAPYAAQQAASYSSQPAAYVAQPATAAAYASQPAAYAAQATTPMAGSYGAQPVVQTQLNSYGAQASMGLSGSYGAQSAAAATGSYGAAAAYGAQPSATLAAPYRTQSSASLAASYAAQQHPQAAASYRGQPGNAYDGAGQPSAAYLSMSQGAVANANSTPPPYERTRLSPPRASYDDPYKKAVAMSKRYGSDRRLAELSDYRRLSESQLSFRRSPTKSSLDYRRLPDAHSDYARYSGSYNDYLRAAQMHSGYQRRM

[10] = target: RPS6 (Homo sapiens) (UniProt P62753); assay: pull-down; conditions: 3' biotin; pull-down: RNA on streptavidin beads blocked in 10 mM Tris-HCl pH 7.5, 100 mM KCl, 0.1 mM EDTA, 1 mM DTT, 0.01% Triton X-100, BSA, tRNA; extract 1 h at 30 °C; protein in an extract; label: biotin
[11] = target: hnRNPA3 (Homo sapiens) (UniProt P51991); assay: pull-down; conditions: 3' biotin; pull-down: RNA on streptavidin beads blocked in 10 mM Tris-HCl pH 7.5, 100 mM KCl, 0.1 mM EDTA, 1 mM DTT, 0.01% Triton X-100, BSA, tRNA; extract 1 h at 30 °C; protein in an extract; label: biotin
[12] = target: Tropomyosin alpha 4 (Homo sapiens) (UniProt P67936); assay: pull-down; conditions: 3' biotin; pull-down: RNA on streptavidin beads blocked in 10 mM Tris-HCl pH 7.5, 100 mM KCl, 0.1 mM EDTA, 1 mM DTT, 0.01% Triton X-100, BSA, tRNA; extract 1 h at 30 °C; protein in an extract; label: biotin
[13] = target: YB-1 (Homo sapiens) (UniProt P67809); assay: pull-down; conditions: 3' biotin; pull-down: RNA on streptavidin beads blocked in 10 mM Tris-HCl pH 7.5, 100 mM KCl, 0.1 mM EDTA, 1 mM DTT, 0.01% Triton X-100, BSA, tRNA; extract 1 h at 30 °C; protein in an extract; label: biotin
[14] = target: RPS9 (Homo sapiens) (UniProt P46781); assay: pull-down; conditions: 3' biotin; pull-down: RNA on streptavidin beads blocked in 10 mM Tris-HCl pH 7.5, 100 mM KCl, 0.1 mM EDTA, 1 mM DTT, 0.01% Triton X-100, BSA, tRNA; extract 1 h at 30 °C; protein in an extract; label: biotin
[15] = target: G3BP2 (Homo sapiens) (UniProt Q9UN86); assay: pull-down; conditions: 3' biotin; pull-down: RNA on streptavidin beads blocked in 10 mM Tris-HCl pH 7.5, 100 mM KCl, 0.1 mM EDTA, 1 mM DTT, 0.01% Triton X-100, BSA, tRNA; extract 1 h at 30 °C; protein in an extract; label: biotin
[16] = target: T3, hnRNPH (Homo sapiens) (UniProt P31943); assay: pull-down; conditions: 3' biotin; pull-down: RNA on streptavidin beads blocked in 10 mM Tris-HCl pH 7.5, 100 mM KCl, 0.1 mM EDTA, 1 mM DTT, 0.01% Triton X-100, BSA, tRNA; extract 1 h at 30 °C; protein in an extract; label: biotin
T3 sequence (looked up, limits assumed): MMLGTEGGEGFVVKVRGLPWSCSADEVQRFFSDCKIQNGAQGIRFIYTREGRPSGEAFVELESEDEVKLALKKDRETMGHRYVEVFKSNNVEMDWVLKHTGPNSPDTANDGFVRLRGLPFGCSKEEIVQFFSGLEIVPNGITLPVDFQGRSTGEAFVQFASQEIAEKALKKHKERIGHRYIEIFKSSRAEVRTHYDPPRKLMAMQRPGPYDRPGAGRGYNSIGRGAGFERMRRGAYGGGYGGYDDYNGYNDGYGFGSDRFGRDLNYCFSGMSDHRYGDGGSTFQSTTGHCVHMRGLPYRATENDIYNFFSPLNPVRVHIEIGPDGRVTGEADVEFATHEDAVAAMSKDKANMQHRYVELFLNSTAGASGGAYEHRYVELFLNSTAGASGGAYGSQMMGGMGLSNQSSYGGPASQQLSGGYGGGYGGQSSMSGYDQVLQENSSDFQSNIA

[17] = target: SRSF1 (native) (Homo sapiens) (UniProt Q07955); assay: pull-down; conditions: 3' biotin; pull-down: RNA on streptavidin beads blocked in 10 mM Tris-HCl pH 7.5, 100 mM KCl, 0.1 mM EDTA, 1 mM DTT, 0.01% Triton X-100, BSA, tRNA; extract 1 h at 30 °C; protein in an extract; label: biotin
[18] = target: RPS2 (Homo sapiens) (UniProt P15880); assay: pull-down; conditions: 3' biotin; pull-down: RNA on streptavidin beads blocked in 10 mM Tris-HCl pH 7.5, 100 mM KCl, 0.1 mM EDTA, 1 mM DTT, 0.01% Triton X-100, BSA, tRNA; extract 1 h at 30 °C; protein in an extract; label: biotin
[19] = tested on: Actin (Homo sapiens); assay: pull-down; conditions: 3' biotin; pull-down: RNA on streptavidin beads blocked in 10 mM Tris-HCl pH 7.5, 100 mM KCl, 0.1 mM EDTA, 1 mM DTT, 0.01% Triton X-100, BSA, tRNA; extract 1 h at 30 °C; protein in an extract; label: biotin
[20] = target: RPL7 (Homo sapiens) (UniProt P18124); assay: pull-down; conditions: 3' biotin; pull-down: RNA on streptavidin beads blocked in 10 mM Tris-HCl pH 7.5, 100 mM KCl, 0.1 mM EDTA, 1 mM DTT, 0.01% Triton X-100, BSA, tRNA; extract 1 h at 30 °C; protein in an extract; label: biotin
[21] = target: SRSF9 (Homo sapiens) (UniProt Q13242); assay: pull-down; conditions: 3' biotin; pull-down: RNA on streptavidin beads blocked in 10 mM Tris-HCl pH 7.5, 100 mM KCl, 0.1 mM EDTA, 1 mM DTT, 0.01% Triton X-100, BSA, tRNA; extract 1 h at 30 °C; protein in an extract; label: biotin
[22] = target: RPL14 (Homo sapiens) (UniProt P50914); assay: pull-down; conditions: 3' biotin; pull-down: RNA on streptavidin beads blocked in 10 mM Tris-HCl pH 7.5, 100 mM KCl, 0.1 mM EDTA, 1 mM DTT, 0.01% Triton X-100, BSA, tRNA; extract 1 h at 30 °C; protein in an extract; label: biotin
[23] = target: RPL10 (Homo sapiens) (UniProt P27635); assay: pull-down; conditions: 3' biotin; pull-down: RNA on streptavidin beads blocked in 10 mM Tris-HCl pH 7.5, 100 mM KCl, 0.1 mM EDTA, 1 mM DTT, 0.01% Triton X-100, BSA, tRNA; extract 1 h at 30 °C; protein in an extract; label: biotin
[24] = target: RPL26 (Homo sapiens) (UniProt P61254); assay: pull-down; conditions: 3' biotin; pull-down: RNA on streptavidin beads blocked in 10 mM Tris-HCl pH 7.5, 100 mM KCl, 0.1 mM EDTA, 1 mM DTT, 0.01% Triton X-100, BSA, tRNA; extract 1 h at 30 °C; protein in an extract; label: biotin
[25] = target: Nucleolin (native) (Homo sapiens) (UniProt P19338); assay: pull-down; conditions: 3' biotin; pull-down: RNA on streptavidin beads blocked in 10 mM Tris-HCl pH 7.5, 100 mM KCl, 0.1 mM EDTA, 1 mM DTT, 0.01% Triton X-100, BSA, tRNA; extract 1 h at 30 °C; protein in an extract; label: biotin
[26] = target: Δnucleolin del1-283 (Homo sapiens) (UniProt P19338); assay: SPR; conditions: similar to ARPC2 mut; 3' biotin; SPR: 25 °C, 1:10 mixture of binding buffer (10 mM Tris-HCl pH 7.5, 150 mM KCl) and HBS-EP (10 mM HEPES pH 7.4, 150 mM NaCl, 3 mM EDTA, 0.005% P20), protein immobilized; recombinant protein; residues 284-710; protein details: N-terminal His-tag (pET28a); label: biotin
[27] = tested on: YB-1 + Actin; assay: pull-down; conditions: band g; 3' biotin; pull-down: RNA on streptavidin beads blocked in 10 mM Tris-HCl pH 7.5, 100 mM KCl, 0.1 mM EDTA, 1 mM DTT, 0.01% Triton X-100, BSA, tRNA; extract 1 h at 30 °C; protein in an extract; label: biotin

## AGCCGGGGGCUGGGCGGGGACCGGGCUUGU [ARPC2 GQ]
[1]
  binding result: binds
[2]
  binding result: binds
[3]
  binding result: binds
[4]
  binding result: binds
[5]
  binding result: binds
[6]
  binding result: binds
[7]
  binding result: binds
[8]
  binding result: binds
[9]
  binding result: binds
[10]
  binding result: binds
[11]
  binding result: no binding
[12]
  binding result: binds
[13]
  binding result: binds
[14]
  binding result: binds
[15]
  binding result: binds
[16]
  binding result: binds
[17]
  binding result: binds
[18]
  binding result: binds
[19]
  binding result: binds
[20]
  binding result: binds
[21]
  binding result: binds
[22]
  binding result: binds
[23]
  binding result: binds
[24]
  binding result: binds
[25]
  binding result: binds

## AGCCGUAGACUGGGCGAAGACCGGGCUUGU [ARPC2-2xG]
[26]
  binding result: binds more weakly
[13]
  binding result: binds
[27]
  binding result: binds
